From PubChem BioAssay AID330 (DTP/NCI, 2004)
The list shows only some results of the screen, not a fair sample: it gathers tests that were run many times, whatever their T/C, doses with no T/C, and many T/C values between a quarter and a half above the control. Further doses and runs are listed elsewhere. T/C is the treated group as % of the vehicle group. Some doses have a count of surviving animals in place of a T/C: the source files T/C as zero there, which appears to mark a toxic dose or a test without result, not a measured value. Some doses without a T/C left all or most animals alive at the check, yet need not have been tolerated: survival well below the control is almost never listed, so the zero probably covers shortened survival too. Counts of survivors are from the toxicity check (mostly the fifth day) where no day follows; animals may have died later. Schedule codes are those of the source, taken here to give the interval after Q, in days (D) or hours (H), and the number of doses after X. For survival time, the PubChem record calls one and a half times the control and up active, and a quarter to a half above the control has no call in these data; cut-offs in other NCI protocols can differ. Some doses were run more than once; the values are given in rising order. Brackets with × count equal records among those shown. Some T/C values carry the count of animals alive at the toxicity check (mostly the fifth day); without a count, all were alive then.

Tested on: P388 leukemia ip, CD2F1 mice, survival T/C
Experiment: NCI In Vivo Anticancer Drug Screen. Data for tumor model P388 Leukemia (intraperitoneal) in CD2F1 (CDF1) mice
Details: T/C endpoint: median survival time, higher T/C = longer survival
[1] = dose: 50.0 mg/kg/injection, schedule: Q01DX005 (ip), vehicle: saline with Tween-80
[2] = dose: 100.0 mg/kg/injection, schedule: Q01DX005 (ip), vehicle: saline with Tween-80
[3] = dose: 200.0 mg/kg/injection, schedule: Q01DX005 (ip), vehicle: saline with Tween-80
[4] = dose: 240.0 mg/kg/injection, schedule: Q01DX005 (ip), vehicle: saline with Tween-80

Question: With `CCC(=N/NC(=S)NCCN1CCCCC1)/C(CC)=N\NC(=S)NCCN1CCCCC1` as the molecule, how does the survivor count (dose: 12.5 mg/kg/injection, schedule: Q01DX009 (ip), vehicle: saline with Tween-80) read?
Answer: The survivor count was 3 of 6.

Question: What about the survivor count (dose: 50.0 mg/kg/injection, schedule: Q01DX009 (ip), vehicle: saline with Tween-80) of the same molecule?
Answer: Its survivor count is 0 of 6.

Question: What about the survivor count (dose: 100.0 mg/kg/injection, schedule: Q01DX009 (ip), vehicle: saline with Tween-80) of the same molecule?
Answer: The survivor count was 0 of 6.

Question: And the survivor count (dose: 200.0 mg/kg/injection, schedule: Q01DX009 (ip), vehicle: saline with Tween-80)?
Answer: Its survivor count is 0 of 6.

Question: How did the survivor count (dose: 400.0 mg/kg/injection, schedule: Q04DX002 (ip), vehicle: Klucel (hydroxypropylcellulose) (HPC)) turn out when `CC(=O)Oc1cc(C)c(OC(C)=O)c(OC(C)=O)c1C` was run?
Answer: Its survivor count is 1 of 6.

Question: How did the T/C (dose: 25.0 mg/kg/injection, schedule: Q04DX003 (ip), vehicle: saline with Tween-80) turn out when `COC(=O)/C=C(\C)NC1CC(OC2C[C@](O)(C(C)=O)Cc3c(O)c4c(c(O)c32)C(=O)c2c(OC)cccc2C4=O)OC(C)C1O` (stereo not given in full) was run?
Answer: Its T/C is 130 and 133 % of control.

Question: And the T/C (dose: 40.0 mg/kg/injection, schedule: Q04DX003 (ip), vehicle: saline with Tween-80)?
Answer: Its T/C is 149 % of control.

Question: With `CN=C(N)N/N=C(\C)c1ccc2c(c1)Cc1ccccc1-2` as the molecule, how does the T/C (dose: 25.0 mg/kg/injection, schedule: Q04DX002 (ip), vehicle: saline with Tween-80) read?
Answer: Its T/C is 127 % of control.

Question: What about the T/C (dose: 50.0 mg/kg/injection, schedule: Q04DX002 (ip), vehicle: saline with Tween-80) of the same molecule?
Answer: The T/C was 127 and 131 % of control.

Question: And the T/C (dose: 100.0 mg/kg/injection, schedule: Q04DX002 (ip), vehicle: saline with Tween-80)?
Answer: The T/C was 134 and 137 % of control.

Question: And the T/C (dose: 200.0 mg/kg/injection, schedule: Q04DX002 (ip), vehicle: saline with Tween-80)?
Answer: The T/C was 143 % of control.

Question: How did the survivor count [1] turn out when `CC1=CC(=Nc2cc(Br)c(O)c(Br)c2)C=CC1=O` was run?
Answer: The survivor count was 4 of 5.

Question: And the survivor count [2]?
Answer: The survivor count was 0 of 5.

Question: And the survivor count [3]?
Answer: The survivor count was 0 of 5.

Question: How did the survivor count (dose: 60.0 mg/kg/injection, schedule: Q01DX005 (ip), vehicle: saline with Tween-80) turn out when `O=C1C2=C(OCO2)C(=O)C2=C1OCO2` was run?
Answer: The survivor count was 5 of 6.

Question: What about the survivor count (dose: 120.0 mg/kg/injection, schedule: Q01DX005 (ip), vehicle: saline with Tween-80) of the same molecule?
Answer: The survivor count was 0 of 6.

Question: And the survivor count [4]?
Answer: The survivor count was 0 of 6.

Question: How did the survivor count (dose: 200.0 mg/kg/injection, schedule: Q01DX009 (ip), vehicle: distilled water + Tween-80 + alcohol) turn out when `N#C/C(=C1/Nc2ccccc2NC1=O)c1ccccc1` was run?
Answer: Its survivor count is 6 of 6.

Question: How did the survivor count (dose: 30.0 mg/kg/injection, schedule: Q01DX009 (ip), vehicle: saline with Tween-80) turn out when `OCCNC(=S)Nc1ccccc1` was run?
Answer: The survivor count was 6 of 6.

Question: With `COc1ccc(/C=C/C(=N/Nc2ccccc2)C(C)CN(C)C)cc1` (stereo not given) as the molecule, how does the survivor count [4] read?
Answer: The survivor count was 0 of 6.

Question: For `O=C(Nc1ccccc1)c1c(O)[nH]c(=S)[nH]c1=O`, which T/C (dose: 20.0 mg/kg/injection, schedule: Q01DX009 (ip), vehicle: saline with Tween-80) is on record?
Answer: Its T/C is 132 and 134 % of control.

Question: And the T/C (dose: 25.0 mg/kg/injection, schedule: Q01DX005 (ip), vehicle: saline with Tween-80)?
Answer: Its T/C is 128 and 138 % of control.

Question: And the T/C (dose: 30.0 mg/kg/injection, schedule: Q01DX009 (ip), vehicle: saline with Tween-80, evaluated on day 45)?
Answer: The T/C was 145 and 153 % of control.

Question: What about the T/C (dose: 30.0 mg/kg/injection, schedule: Q01DX009 (ip), vehicle: saline with Tween-80, evaluated on day 60) of the same molecule?
Answer: The T/C was 153 and 158 % of control.

Question: And the T/C (dose: 44.0 mg/kg/injection, schedule: Q01DX009 (ip), vehicle: saline with Tween-80, evaluated on day 45)?
Answer: Its T/C is 161 and 164 % of control.

Question: What about the T/C (dose: 44.0 mg/kg/injection, schedule: Q01DX009 (ip), vehicle: saline with Tween-80, evaluated on day 60) of the same molecule?
Answer: The T/C was 166 (2×) and 192 % of control.

Question: What about the T/C [1] of the same molecule?
Answer: Its T/C is 142 % of control.

Question: And the T/C (dose: 67.0 mg/kg/injection, schedule: Q01DX009 (ip), vehicle: saline with Tween-80, evaluated on day 45)?
Answer: The T/C was 177 and 191 % of control.

Question: What about the T/C (dose: 67.0 mg/kg/injection, schedule: Q01DX009 (ip), vehicle: saline with Tween-80, evaluated on day 60) of the same molecule?
Answer: Its T/C is 185, 194, 195, 197, 204 % of control.

Question: And the survivor count [2]?
Answer: The survivor count was 4 of 6.

Question: And the T/C (dose: 100.0 mg/kg/injection, schedule: Q01DX009 (ip), vehicle: saline with Tween-80, evaluated on day 45)?
Answer: Its T/C is 219, 235, 245 % of control.

Question: And the T/C (dose: 100.0 mg/kg/injection, schedule: Q01DX009 (ip), vehicle: saline with Tween-80, evaluated on day 60)?
Answer: Its T/C is 209, 211 (2×), 215, 226, 242, 358 % of control.

Question: What about the T/C (dose: 125.0 mg/kg/injection, schedule: Q01DX009 (ip), vehicle: saline with Tween-80, evaluated on day 45) of the same molecule?
Answer: The T/C was 288 % of control.

Question: What about the T/C (dose: 125.0 mg/kg/injection, schedule: Q01DX009 (ip), vehicle: saline with Tween-80, evaluated on day 60) of the same molecule?
Answer: Its T/C is 221 [9 of 10 alive], 225, 303, 316, 600 % of control.

Question: What about the T/C (dose: 150.0 mg/kg/injection, schedule: Q01DX009 (ip), vehicle: saline with Tween-80, evaluated on day 45) of the same molecule?
Answer: Its T/C is 374 % of control.

Question: What about the T/C (dose: 150.0 mg/kg/injection, schedule: Q01DX009 (ip), vehicle: saline with Tween-80, evaluated on day 60) of the same molecule?
Answer: Its T/C is 224, 233, 255, 277, 356, 600 % of control.

Question: What about the survivor count (dose: 175.0 mg/kg/injection, schedule: Q01DX009 (ip), vehicle: saline with Tween-80) of the same molecule?
Answer: Its survivor count is 6 of 10.

Question: And the survivor count [3]?
Answer: The survivor count was 0 of 6.

Question: `COc1cc(OC)c(OC)cc1/C=C/C1=C(C)C(=O)CC(c2cc(OC)c(OC)cc2OC)C1C` (stereo not given) was tested. Which survivor count (dose: 400.0 mg/kg/injection, schedule: Q01DX001 (ip), vehicle: Klucel (hydroxypropylcellulose) (HPC)) did it give?
Answer: Its survivor count is 6 of 6.

Question: `[Cl][Sn]([c]1ccccc1)([c]1ccccc1)[c]1ccccc1` was tested. Which survivor count (dose: 1.25 mg/kg/injection, schedule: Q01DX009 (ip), vehicle: saline) did it give?
Answer: The survivor count was 6 of 6.

Question: What about the survivor count (dose: 10.0 mg/kg/injection, schedule: Q01DX009 (ip), vehicle: saline) of the same molecule?
Answer: The survivor count was 5 of 6.

Question: How did the survivor count [3] turn out when `ClCC1=NC2CCCCC2N1` (stereo not given) was run?
Answer: Its survivor count is 3 of 5.

Question: What does the source list for `Nc1n[n+](-c2ccc3ccccc3c2)no1`?
Answer: survivor count (dose: 50.0 mg/kg/injection, schedule: Q01DX009 (ip), vehicle: water): 6 of 6; survivor count (dose: 100.0 mg/kg/injection, schedule: Q01DX009 (ip), vehicle: water): 0 of 6

Question: Which results are given for `Cn1nc(-c2ccc3c(c2)OCO3)[n+]([O-])c2c(=O)n(C)c(=O)nc1-2`?
Answer: survivor count (dose: 25.0 mg/kg/injection, schedule: Q04DX003 (ip), vehicle: Klucel (hydroxypropylcellulose) (HPC)): 0 of 6; survivor count (dose: 50.0 mg/kg/injection, schedule: Q04DX003 (ip), vehicle: Klucel (hydroxypropylcellulose) (HPC)): 0 of 6; survivor count (dose: 100.0 mg/kg/injection, schedule: Q04DX003 (ip), vehicle: Klucel (hydroxypropylcellulose) (HPC)): 0 of 6; survivor count (dose: 200.0 mg/kg/injection, schedule: Q04DX003 (ip), vehicle: Klucel (hydroxypropylcellulose) (HPC)): 0 of 6; survivor count (dose: 400.0 mg/kg/injection, schedule: Q04DX003 (ip), vehicle: Klucel (hydroxypropylcellulose) (HPC)): 0 of 6

Question: For `CC([NH-])CC(C)[NH-].O=C(O)C(=O)O.[Pt+2]` (stereo not given), which T/C (dose: 6.25 mg/kg/injection, schedule: Q04DX002 (ip), vehicle: saline with Tween-80) is on record?
Answer: Its T/C is 147 % of control.
